From publication PMC3138737, “Interaction between the Triglyceride Lipase ATGL and the Arf1 Activator GBF1” (PLoS ONE, 2011)
No constants are given. Whether binding was seen depends on the method and setting. For some assays here: Binding calls can cover weak binding; strength is not graded here. Sequences can lack the tags named with a protein. For some assays here: In cells and extracts the contact can be indirect.

Amino acid sequences for entries named in this document (tags omitted). A change or cut given only in a name is not applied to a line headed by its entry.
UniProt Q9Y6D6: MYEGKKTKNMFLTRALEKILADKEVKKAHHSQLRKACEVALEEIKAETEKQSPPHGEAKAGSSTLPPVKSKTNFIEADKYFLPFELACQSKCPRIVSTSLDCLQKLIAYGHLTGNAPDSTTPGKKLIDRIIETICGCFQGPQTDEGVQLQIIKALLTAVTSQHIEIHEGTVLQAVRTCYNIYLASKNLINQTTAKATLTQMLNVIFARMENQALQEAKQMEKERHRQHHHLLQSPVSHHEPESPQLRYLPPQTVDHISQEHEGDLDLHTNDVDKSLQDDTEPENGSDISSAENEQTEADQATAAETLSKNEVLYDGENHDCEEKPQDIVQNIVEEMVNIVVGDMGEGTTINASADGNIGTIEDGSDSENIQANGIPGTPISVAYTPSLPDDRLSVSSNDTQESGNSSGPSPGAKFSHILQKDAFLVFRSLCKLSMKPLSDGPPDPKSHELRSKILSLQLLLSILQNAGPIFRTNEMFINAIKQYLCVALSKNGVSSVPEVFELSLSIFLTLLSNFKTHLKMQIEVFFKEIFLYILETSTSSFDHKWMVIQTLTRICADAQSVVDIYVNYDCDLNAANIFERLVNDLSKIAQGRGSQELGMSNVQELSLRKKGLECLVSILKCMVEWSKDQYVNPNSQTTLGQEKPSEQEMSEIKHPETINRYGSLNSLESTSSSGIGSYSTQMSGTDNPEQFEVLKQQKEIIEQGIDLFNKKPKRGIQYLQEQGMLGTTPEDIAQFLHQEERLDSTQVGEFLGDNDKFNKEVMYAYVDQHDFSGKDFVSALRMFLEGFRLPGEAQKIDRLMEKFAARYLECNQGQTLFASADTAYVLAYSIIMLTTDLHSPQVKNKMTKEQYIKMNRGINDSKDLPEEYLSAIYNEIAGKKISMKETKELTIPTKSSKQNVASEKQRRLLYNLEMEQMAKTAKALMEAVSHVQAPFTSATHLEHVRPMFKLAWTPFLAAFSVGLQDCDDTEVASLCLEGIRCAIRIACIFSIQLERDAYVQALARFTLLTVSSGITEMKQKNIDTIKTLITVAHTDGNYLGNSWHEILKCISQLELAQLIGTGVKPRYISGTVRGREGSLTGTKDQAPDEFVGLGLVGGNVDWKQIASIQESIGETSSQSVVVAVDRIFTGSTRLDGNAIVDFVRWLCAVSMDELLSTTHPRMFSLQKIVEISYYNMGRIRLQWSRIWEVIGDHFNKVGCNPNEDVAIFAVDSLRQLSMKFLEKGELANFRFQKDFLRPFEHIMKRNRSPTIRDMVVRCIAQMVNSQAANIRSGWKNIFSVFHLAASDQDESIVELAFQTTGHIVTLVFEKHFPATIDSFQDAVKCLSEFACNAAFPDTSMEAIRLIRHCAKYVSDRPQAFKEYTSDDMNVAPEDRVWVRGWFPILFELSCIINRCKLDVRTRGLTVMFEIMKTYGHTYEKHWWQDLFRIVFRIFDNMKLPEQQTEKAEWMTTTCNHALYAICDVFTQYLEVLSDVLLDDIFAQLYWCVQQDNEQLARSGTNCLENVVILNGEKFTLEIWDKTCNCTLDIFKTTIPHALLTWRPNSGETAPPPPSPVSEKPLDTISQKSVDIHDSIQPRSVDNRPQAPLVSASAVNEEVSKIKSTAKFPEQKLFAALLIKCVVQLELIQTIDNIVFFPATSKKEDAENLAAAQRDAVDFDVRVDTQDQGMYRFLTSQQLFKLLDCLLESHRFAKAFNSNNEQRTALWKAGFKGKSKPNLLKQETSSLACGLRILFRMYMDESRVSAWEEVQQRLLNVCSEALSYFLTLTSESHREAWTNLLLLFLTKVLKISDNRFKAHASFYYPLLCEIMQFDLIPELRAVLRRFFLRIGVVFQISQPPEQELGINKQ
UniProt Q9Y6D5: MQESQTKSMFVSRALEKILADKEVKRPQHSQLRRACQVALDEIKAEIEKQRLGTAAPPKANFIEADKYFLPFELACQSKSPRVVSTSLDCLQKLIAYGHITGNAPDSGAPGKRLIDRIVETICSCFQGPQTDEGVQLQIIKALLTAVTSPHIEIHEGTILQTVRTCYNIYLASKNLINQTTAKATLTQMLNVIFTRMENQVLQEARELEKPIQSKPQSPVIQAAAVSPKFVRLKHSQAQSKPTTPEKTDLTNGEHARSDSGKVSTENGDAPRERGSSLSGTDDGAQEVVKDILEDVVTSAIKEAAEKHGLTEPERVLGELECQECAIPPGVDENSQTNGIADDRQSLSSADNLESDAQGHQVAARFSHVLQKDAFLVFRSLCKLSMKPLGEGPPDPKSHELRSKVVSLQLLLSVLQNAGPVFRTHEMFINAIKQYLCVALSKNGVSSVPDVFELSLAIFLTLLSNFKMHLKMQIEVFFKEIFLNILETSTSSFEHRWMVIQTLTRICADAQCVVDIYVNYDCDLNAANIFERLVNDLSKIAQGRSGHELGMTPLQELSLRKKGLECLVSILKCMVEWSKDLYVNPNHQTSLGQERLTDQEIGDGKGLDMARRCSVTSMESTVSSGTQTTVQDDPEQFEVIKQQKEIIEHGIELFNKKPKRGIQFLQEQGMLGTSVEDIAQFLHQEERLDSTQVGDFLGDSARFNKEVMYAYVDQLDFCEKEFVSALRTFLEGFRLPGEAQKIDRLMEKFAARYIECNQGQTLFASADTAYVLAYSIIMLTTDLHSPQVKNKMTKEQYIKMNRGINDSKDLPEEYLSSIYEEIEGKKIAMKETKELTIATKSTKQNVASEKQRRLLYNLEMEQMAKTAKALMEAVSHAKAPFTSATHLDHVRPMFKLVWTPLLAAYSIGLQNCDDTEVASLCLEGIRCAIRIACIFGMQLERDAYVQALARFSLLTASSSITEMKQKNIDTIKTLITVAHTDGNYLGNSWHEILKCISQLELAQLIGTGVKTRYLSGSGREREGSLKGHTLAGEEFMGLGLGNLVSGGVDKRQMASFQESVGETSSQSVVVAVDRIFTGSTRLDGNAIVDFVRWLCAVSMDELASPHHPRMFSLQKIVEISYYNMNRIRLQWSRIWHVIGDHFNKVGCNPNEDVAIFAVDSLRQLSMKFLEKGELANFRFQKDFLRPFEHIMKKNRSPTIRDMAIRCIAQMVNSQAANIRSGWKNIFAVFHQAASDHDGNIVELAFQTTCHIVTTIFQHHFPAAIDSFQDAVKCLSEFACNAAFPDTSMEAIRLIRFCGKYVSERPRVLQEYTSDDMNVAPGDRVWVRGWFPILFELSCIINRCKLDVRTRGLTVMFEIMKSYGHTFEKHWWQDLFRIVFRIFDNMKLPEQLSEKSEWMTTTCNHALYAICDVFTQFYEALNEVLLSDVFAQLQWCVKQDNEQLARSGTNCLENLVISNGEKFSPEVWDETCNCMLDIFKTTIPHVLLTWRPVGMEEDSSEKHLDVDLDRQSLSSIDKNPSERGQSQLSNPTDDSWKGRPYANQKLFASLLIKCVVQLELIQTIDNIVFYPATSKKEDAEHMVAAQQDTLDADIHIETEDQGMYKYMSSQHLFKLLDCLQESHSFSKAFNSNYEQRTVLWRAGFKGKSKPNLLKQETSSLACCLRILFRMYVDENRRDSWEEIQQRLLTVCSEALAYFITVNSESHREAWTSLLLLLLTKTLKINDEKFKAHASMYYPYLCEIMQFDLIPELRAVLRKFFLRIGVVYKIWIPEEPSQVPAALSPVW
UniProt Q99418: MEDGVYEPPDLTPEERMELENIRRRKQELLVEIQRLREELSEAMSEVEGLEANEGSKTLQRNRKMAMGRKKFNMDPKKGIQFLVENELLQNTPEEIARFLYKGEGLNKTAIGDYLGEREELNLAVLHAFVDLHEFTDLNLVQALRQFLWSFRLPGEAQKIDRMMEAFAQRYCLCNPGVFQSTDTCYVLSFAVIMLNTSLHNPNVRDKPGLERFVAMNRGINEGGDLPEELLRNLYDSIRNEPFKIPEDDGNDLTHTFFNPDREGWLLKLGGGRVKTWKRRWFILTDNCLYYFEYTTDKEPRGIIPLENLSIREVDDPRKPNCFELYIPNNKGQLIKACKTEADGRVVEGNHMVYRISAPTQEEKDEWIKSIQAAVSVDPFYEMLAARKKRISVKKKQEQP

Tests used:
[1] = target: Venus-tagged GBF1 HDS2 domain (human); assay: co-IP; Cos7 cells co-transfected with HA-tagged ATGL constructs and Venus-tagged constructs; IP with anti-GFP, blot with anti-HA; lysis in 50 mM Tris-HCl pH 7.5, 100 mM NaCl, 1 mM EDTA, 0.5% NP40; 4°C
[2] = target: Venus-tagged GBF1 HUS domain (human); assay: as above
Venus-ΔDCB-GBF1 (human) = assay: as above
[3] = target: Venus-tagged GBF1 HDS1 domain (human); assay: as above
[4] = target: Venus-tagged BIG1 Sec7 domain, EK mutant (human) (UniProt Q9Y6D6); assay: as above
[5] = target: Venus-tagged BIG2 Sec7 domain, EK mutant (human) (UniProt Q9Y6D5); assay: as above
[6] = target: Venus-tagged EFA6 Sec7 domain, EK mutant (human); assay: as above
[7] = target: Venus-tagged ARNO Sec7 domain, EK mutant (human) (UniProt Q99418); assay: as above
[8] = target: BIG2 Sec7 domain fused to the DNA-binding domain of Gal4p (pGBKT7-Sec7-BIG2) (human) (UniProt Q9Y6D5); assay: two-hybrid; yeast AH109; ATGL(367–504) in pACT2 (Gal4 activation domain), Sec7 domains in pGBKT7 (Gal4 DNA-binding domain); screen of a human brain cDNA library with BIG2 Sec7 as bait and retest; selective plates, three days at 30°C
[9] = target: ARNO Sec7 domain fused to the DNA-binding domain of Gal4p (pGBKT7-Sec7-ARNO) (human) (UniProt Q99418); assay: as above
[10] = target: EFA6 Sec7 domain fused to the DNA-binding domain of Gal4p (pGBKT7-Sec7-EFA6) (human); assay: as above
[11] = target: GBF1 Sec7 domain fused to the DNA-binding domain of Gal4p (pGBKT7-Sec7-GBF1) (human); assay: as above

Row | binding [1] | binding [2] | binding [3] | Binder | other results
1 | binds | binds | binds | HA-tagged H. sapiens ATGL(1–366) (domain or fragment, UniProt Q96AD5 1-366) MFPREKTWNISFAGCGFLGVYYVGVASCLREHAPFLVANATHIYGASAGALTATALVTGVCLGEAGAKFIEVSKEARKRFLGPLHPSFNLVKIIRSFLLKVLPADSHEHASGRLGISLTRVSDGENVIISHFNSKDELIQANVCSGFIPVYCGLIPPSLQGVRYVDGGISDNLPLYELKNTITVSPFSGESDICPQDSSTNIHELRVTNTSIQFNLRNLYRLSKALFPPEPLVLREMCKQGYRDGLRFLQRNGLLNRPNPLLALPPARPHGPEDKDQAVESAQAEDYSQLPGEDHILEHLPARLNEALLEACVEPTDLLTTLSNMLPVRLATAMMVPYTLPLESALSFTIRLLEWLPDVPEDIRWM | binding (Venus-ΔDCB-GBF1 (human)): binds
2 | binds |  | binds | HA-tagged H. sapiens ATGL(1–178) (domain or fragment, UniProt Q96AD5 1-178) MFPREKTWNISFAGCGFLGVYYVGVASCLREHAPFLVANATHIYGASAGALTATALVTGVCLGEAGAKFIEVSKEARKRFLGPLHPSFNLVKIIRSFLLKVLPADSHEHASGRLGISLTRVSDGENVIISHFNSKDELIQANVCSGFIPVYCGLIPPSLQGVRYVDGGISDNLPLYEL | 
3 | binds | binds |  | HA-tagged H. sapiens ATGL (full-length) (protein, UniProt Q96AD5 1-504) MFPREKTWNISFAGCGFLGVYYVGVASCLREHAPFLVANATHIYGASAGALTATALVTGVCLGEAGAKFIEVSKEARKRFLGPLHPSFNLVKIIRSFLLKVLPADSHEHASGRLGISLTRVSDGENVIISHFNSKDELIQANVCSGFIPVYCGLIPPSLQGVRYVDGGISDNLPLYELKNTITVSPFSGESDICPQDSSTNIHELRVTNTSIQFNLRNLYRLSKALFPPEPLVLREMCKQGYRDGLRFLQRNGLLNRPNPLLALPPARPHGPEDKDQAVESAQAEDYSQLPGEDHILEHLPARLNEALLEACVEPTDLLTTLSNMLPVRLATAMMVPYTLPLESALSFTIRLLEWLPDVPEDIRWMKEQTGSICQYLVMRAKRKLGRHLPSRLPEQVELRRVQSLPSVPLSCAAYREALPGWMRNNLSLGDALAKWEECQRQLLLGLFCTNVAFPPEALRMRAPADPAPAPADPASPQHQLAGPAPLLSTPAPEARPVIGALGL | binding [4]: binds; binding [5]: binds; binding [6]: no binding; binding [7]: binds
4 | binds |  | binds | HA-tagged H. sapiens ATGL-S47A (protein, UniProt Q96AD5 1-504) MFPREKTWNISFAGCGFLGVYYVGVASCLREHAPFLVANATHIYGAAAGALTATALVTGVCLGEAGAKFIEVSKEARKRFLGPLHPSFNLVKIIRSFLLKVLPADSHEHASGRLGISLTRVSDGENVIISHFNSKDELIQANVCSGFIPVYCGLIPPSLQGVRYVDGGISDNLPLYELKNTITVSPFSGESDICPQDSSTNIHELRVTNTSIQFNLRNLYRLSKALFPPEPLVLREMCKQGYRDGLRFLQRNGLLNRPNPLLALPPARPHGPEDKDQAVESAQAEDYSQLPGEDHILEHLPARLNEALLEACVEPTDLLTTLSNMLPVRLATAMMVPYTLPLESALSFTIRLLEWLPDVPEDIRWMKEQTGSICQYLVMRAKRKLGRHLPSRLPEQVELRRVQSLPSVPLSCAAYREALPGWMRNNLSLGDALAKWEECQRQLLLGLFCTNVAFPPEALRMRAPADPAPAPADPASPQHQLAGPAPLLSTPAPEARPVIGALGL | 
5 | binds |  | binds | HA-tagged H. sapiens ATGL(1–289) (domain or fragment, UniProt Q96AD5 1-289) MFPREKTWNISFAGCGFLGVYYVGVASCLREHAPFLVANATHIYGASAGALTATALVTGVCLGEAGAKFIEVSKEARKRFLGPLHPSFNLVKIIRSFLLKVLPADSHEHASGRLGISLTRVSDGENVIISHFNSKDELIQANVCSGFIPVYCGLIPPSLQGVRYVDGGISDNLPLYELKNTITVSPFSGESDICPQDSSTNIHELRVTNTSIQFNLRNLYRLSKALFPPEPLVLREMCKQGYRDGLRFLQRNGLLNRPNPLLALPPARPHGPEDKDQAVESAQAEDYSQ | 
6 |  |  |  | ATGL amino acids 367–504 fused to the activation domain of Gal4p (pACT2 library plasmid) (domain or fragment, UniProt Q96AD5 367-504) KEQTGSICQYLVMRAKRKLGRHLPSRLPEQVELRRVQSLPSVPLSCAAYREALPGWMRNNLSLGDALAKWEECQRQLLLGLFCTNVAFPPEALRMRAPADPAPAPADPASPQHQLAGPAPLLSTPAPEARPVIGALGL | binding [8]: binds; binding [9]: binds; binding [10]: no binding; binding [11]: binds
